Measurements from paper PMC12298007 (Pharmaceuticals, 2025).

Key:
[1] = general procedure: Fmoc solid-phase peptide synthesis; Rink Amide MBHA; HATU/DIPEA (fragment condensation); details: whole synthesis, 220 nm
[2] = general procedure: Fmoc solid-phase peptide synthesis; Rink Amide MBHA resin (RM2); Fmoc-D-Lys(Boc)-Wang resin (PSMA-I&S); HATU/DIPEA (fragment condensation); details: late stage modification step, 220 nm

Row | Substance | final HPLC purity [1] | final HPLC purity [2]
1 | DOTA-APipAc-phe-Gln-Trp-Ala-Val-Gly-His-Sta-Leu-NH2 | >95% | 
2 | mas3-tyr-nal-lys(Sub-Lys-urea-Glu) |  | >99%
